This is an account of results in the supplement of paper PMC3334620.

The full ranking holds about 33,000 sequences; the median of “E-score (-0.5 to 0.5)” is about -8e-05, and the highest 2% start at about 0.23. This is one part of the list.

The target of this experiment is T1, Nrg2 (UniProt P38082).
T1 sequence: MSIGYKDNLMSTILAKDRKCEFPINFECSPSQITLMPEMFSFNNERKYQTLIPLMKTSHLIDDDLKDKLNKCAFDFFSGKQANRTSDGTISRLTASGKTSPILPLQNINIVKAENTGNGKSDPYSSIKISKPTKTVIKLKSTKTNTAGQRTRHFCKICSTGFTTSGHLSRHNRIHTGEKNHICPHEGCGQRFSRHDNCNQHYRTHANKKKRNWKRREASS
The experiment can be described thus: PBM E-score (8-mer binding enrichment) (E-score (-0.5 to 0.5)); higher = stronger / more preferred TF binding. Conditions: protein concentration: 100 nM; construct: GST-full length. On the procedure: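 Universal 'all 10-mer' protein binding microarrays (Agilent AMADID 015681) probed with GST-tagged S. cerevisiae TFs (full-length or DBD) made by in vitro transcription/translation (PURExpress), about 100-200 nM. Bound TF was detected with fluorescent anti-GST. Each ungapped 8-mer (which stands for itself and its reverse complement) is scored by the PBM enrichment score (E-score), a modified Wilcoxon-Mann-Whitney statistic from -0.5 to +0.5, computed with the Universal PBM Analysis Suite. Scale: above 0.35 generally sequence-specific binding.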
For the sequence GCCCCCAC, the “PBM E-score” value was -0.384.
With CGTAATAA the figure was 0.0437; with TTCCACAA, 0.206.
As to TACAGCCA, the “PBM E-score” value was 0.0383.
In the case of CGTATCGC, the “PBM E-score” value is -0.0619.
With CGCACTAA the figure was 0.0898; with ACGAGGAC, -0.0285.
With AGGCGTGA the figure was -0.174; with CAAGGCAG, 0.0797.
As for TGGCGTAA, the “PBM E-score” value was -0.195.
In the case of CCTCAAGG, the “PBM E-score” value is -0.106.
In the case of AAAGAGGC, the “PBM E-score” value is -0.228.
In the case of CGATCCAC it was -0.0637; in that of ATGCAGGC, -0.0578.
Regarding ATTCCACC, the “PBM E-score” value turned out to be 0.0335.
AAGGGAAT: the “PBM E-score” value stood at 0.0163.
As to ACTGACAC, the “PBM E-score” value is -0.0104.
With GAGCCGAA the figure was 0.01; with CCCACGAA, 0.197; with CTTAGGAC, -0.204.
Take AGTGTTTG: the “PBM E-score” value was determined as 0.174.
Take TACTAGCA: the “PBM E-score” value is 0.0982.
TCCAGTAA: the “PBM E-score” value was -0.0742.
With CTTCTCGC the figure was 0.0525; with CGGCTGAC, -0.0354.
With AGCTACAC the figure was 0.0938; with AGCGAACG, -0.156; with GATACAGA, 0.13.
With CGGTTGCA the figure was -0.119; with ACGAATCG, 0.0934; with CGGAGCCG, -0.161.
Take GATACCTA: the “PBM E-score” value stood at 0.256.
With ATCATGAG the figure was 0.0545; with CGTTTCTA, -0.0503.
In the case of ATTTCGCC it was 0.0633; in that of CATGCCAG, -0.0766.
With GAAGGTGC the figure was -0.137; with CGCTTAGA, -0.0508; with GTTCTCTA, -0.154.
On to CATCGCCA, for which the “PBM E-score” value amounted to 0.103.
Consider GATATCTA, for which the “PBM E-score” value worked out at 0.0972.
As to AAACCCTT, the “PBM E-score” value was found to be 0.0879.
With AACTGGCC the figure was 0.0516; with CCAAGATA, 0.00687.
With AGCGTTAT the figure was -0.0753.
In the case of ACGATGTC it was 0.0434; in that of TCGATCGA, 0.162; in that of ACATTTAG, -0.279.
For the sequence GCTCGCGA, the “PBM E-score” value turned out to be 0.137.
In the case of GATAGGTA it was 0.152; in that of AATCCTGG, -0.0611.
In the case of CGCCGTGC it was 0.0708; in that of CCGTGAGG, -0.22.
With CGATACTC the figure was 0.0984; with CCCAGGCA, -0.222; with AACGGCCG, 0.139.
As for AACCTCTC, the “PBM E-score” value is -0.0955.
AGACGTAC: the “PBM E-score” value is -0.144.
As to TGTTAGAA, the “PBM E-score” value was -0.0164.
With ACACCTAT the figure was 0.0366; with GTATAAAA, 0.153; with GCCTCTCA, -0.107.
With CATCCCGA the figure was -0.0993; with GGCTGGGA, -0.2.
With GGTTTCAC, the “PBM E-score” value is 0.098.
Consider GTAACTTA, for which the “PBM E-score” value stood at 0.138.
In the case of TCGTTAGA it was -0.162; in that of ACGAGTGA, -0.0665.
In the case of ACAACATG it was 0.051.
With ATGCGGAG the figure was -0.173; with AGTTCTAT, -0.0788.
For CTGTTGGC, the “PBM E-score” value was -0.0852.
For ATATATTA, the “PBM E-score” value was 0.245.
On to GTGAACAC, for which the “PBM E-score” value was -0.2.
GGCGCGAA: the “PBM E-score” value amounted to 0.144.
With AGTGACCA the figure was 0.0777; with AGTAAGTG, -0.0161.
Take TCTTAGCA: the “PBM E-score” value is -0.0976.
With ACACGCAC, the “PBM E-score” value was -0.0409.
In the case of ACACTGTG it was -0.0298; in that of AAAGGGGA, -0.0462.
With TCCGAACA the figure was -0.00282; with CGCGCGAC, 0.163; with CAGAAGGG, -0.145.
In the case of CCGCCAGA it was -0.0239; in that of ACGCCACG, -0.27.
